The target in this assay is GFP-MCAK^sN+M (UniProt Q99661). Briefly: single-molecule fluorescence intensity (TIRF microscopy); fluorescence intensity of single binding events on dynamic microtubules (tubulin 16 μM), 10 nM protein, 1 mM ATP; ends and lattice not told apart; both purified.

Sequences of proteins named here, by UniProt entry; tags and fusion partners are left off. Residues count along the entry.
UniProt Q99661, residues 216-598: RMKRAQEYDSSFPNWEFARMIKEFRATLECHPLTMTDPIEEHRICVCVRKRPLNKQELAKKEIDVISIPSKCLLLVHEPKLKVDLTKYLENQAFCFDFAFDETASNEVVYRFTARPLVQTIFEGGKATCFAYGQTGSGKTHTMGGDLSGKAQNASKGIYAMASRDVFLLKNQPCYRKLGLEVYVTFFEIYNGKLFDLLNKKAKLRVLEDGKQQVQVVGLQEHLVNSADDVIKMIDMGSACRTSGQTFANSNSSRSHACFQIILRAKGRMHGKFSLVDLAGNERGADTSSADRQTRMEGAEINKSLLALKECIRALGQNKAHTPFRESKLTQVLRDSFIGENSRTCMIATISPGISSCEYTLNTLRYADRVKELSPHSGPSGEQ

No constants are given. Whether binding was seen depends on the method and setting.

“GFP-MCAK^sN+M (from UniProt Q99661 216-598) (domain or fragment)”: the binding entry was “no binding”.

For the origin of these results see paper PMC12629592, “MCAK recognizes the nucleotide-dependent feature at growing microtubule ends” (eLife, 2025).
